According to the supplement of paper PMC10849652:
This is one part of the list.

By UniProt entry, the sequences of proteins in these tests, tags left out. Where a name states a change or a piece, a line headed by the entry shows the natural chain unless it says otherwise.
UniProt Q9BZM5, whole entry, looked up: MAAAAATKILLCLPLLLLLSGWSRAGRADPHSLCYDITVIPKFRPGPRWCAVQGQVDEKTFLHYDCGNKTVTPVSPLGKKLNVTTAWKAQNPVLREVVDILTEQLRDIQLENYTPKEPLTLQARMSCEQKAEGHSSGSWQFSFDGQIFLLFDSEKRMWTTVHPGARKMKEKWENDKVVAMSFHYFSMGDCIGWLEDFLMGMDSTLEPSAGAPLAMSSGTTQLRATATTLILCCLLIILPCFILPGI
UniProt Q14146: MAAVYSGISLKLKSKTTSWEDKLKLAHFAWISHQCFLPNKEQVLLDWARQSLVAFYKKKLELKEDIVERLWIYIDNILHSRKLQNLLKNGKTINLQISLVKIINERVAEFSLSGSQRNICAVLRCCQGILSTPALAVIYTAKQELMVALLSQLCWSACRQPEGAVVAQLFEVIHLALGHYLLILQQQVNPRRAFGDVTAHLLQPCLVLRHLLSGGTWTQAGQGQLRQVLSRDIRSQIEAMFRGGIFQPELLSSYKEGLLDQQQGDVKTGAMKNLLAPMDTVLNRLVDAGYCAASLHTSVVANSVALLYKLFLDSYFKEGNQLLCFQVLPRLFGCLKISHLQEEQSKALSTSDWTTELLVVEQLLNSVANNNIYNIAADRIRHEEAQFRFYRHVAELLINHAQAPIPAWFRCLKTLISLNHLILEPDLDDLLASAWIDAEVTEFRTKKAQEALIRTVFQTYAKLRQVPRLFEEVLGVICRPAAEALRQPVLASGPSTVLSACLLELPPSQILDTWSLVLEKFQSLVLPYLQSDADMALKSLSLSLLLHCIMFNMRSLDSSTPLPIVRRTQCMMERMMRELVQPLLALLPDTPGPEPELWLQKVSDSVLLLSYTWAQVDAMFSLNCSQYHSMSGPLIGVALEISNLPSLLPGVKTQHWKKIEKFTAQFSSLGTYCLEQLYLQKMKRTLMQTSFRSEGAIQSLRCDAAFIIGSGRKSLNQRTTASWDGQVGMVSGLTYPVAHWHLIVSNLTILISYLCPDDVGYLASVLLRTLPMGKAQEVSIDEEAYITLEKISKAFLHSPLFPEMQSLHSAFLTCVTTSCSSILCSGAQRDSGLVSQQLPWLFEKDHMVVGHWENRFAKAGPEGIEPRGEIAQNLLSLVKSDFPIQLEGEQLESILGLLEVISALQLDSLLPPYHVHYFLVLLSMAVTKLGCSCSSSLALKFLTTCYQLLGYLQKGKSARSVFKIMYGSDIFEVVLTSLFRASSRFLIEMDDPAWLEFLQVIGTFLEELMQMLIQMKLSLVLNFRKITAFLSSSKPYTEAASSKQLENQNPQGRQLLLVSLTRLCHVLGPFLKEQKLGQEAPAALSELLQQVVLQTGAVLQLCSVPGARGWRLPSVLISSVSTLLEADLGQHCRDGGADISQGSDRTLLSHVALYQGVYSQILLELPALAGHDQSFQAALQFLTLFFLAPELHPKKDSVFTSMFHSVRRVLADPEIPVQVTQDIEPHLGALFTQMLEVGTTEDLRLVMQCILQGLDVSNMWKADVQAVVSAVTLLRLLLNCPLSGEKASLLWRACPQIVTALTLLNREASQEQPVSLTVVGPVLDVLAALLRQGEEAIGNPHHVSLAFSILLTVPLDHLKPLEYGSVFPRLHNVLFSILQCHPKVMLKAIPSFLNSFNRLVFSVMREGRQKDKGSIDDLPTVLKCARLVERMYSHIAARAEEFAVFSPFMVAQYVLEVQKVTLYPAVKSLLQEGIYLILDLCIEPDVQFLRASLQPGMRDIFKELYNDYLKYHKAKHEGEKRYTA
UniProt P09327: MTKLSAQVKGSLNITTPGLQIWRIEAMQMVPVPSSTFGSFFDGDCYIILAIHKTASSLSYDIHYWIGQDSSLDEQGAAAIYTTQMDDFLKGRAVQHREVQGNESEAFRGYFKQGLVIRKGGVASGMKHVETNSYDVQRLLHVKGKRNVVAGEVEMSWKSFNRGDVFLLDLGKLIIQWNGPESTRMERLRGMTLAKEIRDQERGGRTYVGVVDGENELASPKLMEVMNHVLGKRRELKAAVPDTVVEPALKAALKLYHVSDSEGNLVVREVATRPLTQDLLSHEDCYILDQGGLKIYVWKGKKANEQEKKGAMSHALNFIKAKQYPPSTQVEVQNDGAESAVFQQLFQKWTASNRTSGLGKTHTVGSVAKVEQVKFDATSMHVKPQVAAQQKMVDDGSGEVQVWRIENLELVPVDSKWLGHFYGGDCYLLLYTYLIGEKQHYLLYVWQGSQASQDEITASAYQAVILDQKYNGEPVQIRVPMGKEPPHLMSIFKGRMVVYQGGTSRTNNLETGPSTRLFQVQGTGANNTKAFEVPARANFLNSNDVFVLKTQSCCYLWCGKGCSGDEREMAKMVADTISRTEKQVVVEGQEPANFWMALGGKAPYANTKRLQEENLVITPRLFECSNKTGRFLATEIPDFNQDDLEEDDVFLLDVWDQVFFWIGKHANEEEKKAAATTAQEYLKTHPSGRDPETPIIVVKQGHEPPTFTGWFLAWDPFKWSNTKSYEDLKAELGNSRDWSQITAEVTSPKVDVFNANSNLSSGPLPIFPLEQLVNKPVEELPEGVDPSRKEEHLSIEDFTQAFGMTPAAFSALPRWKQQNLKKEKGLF
UniProt Q9H1J1: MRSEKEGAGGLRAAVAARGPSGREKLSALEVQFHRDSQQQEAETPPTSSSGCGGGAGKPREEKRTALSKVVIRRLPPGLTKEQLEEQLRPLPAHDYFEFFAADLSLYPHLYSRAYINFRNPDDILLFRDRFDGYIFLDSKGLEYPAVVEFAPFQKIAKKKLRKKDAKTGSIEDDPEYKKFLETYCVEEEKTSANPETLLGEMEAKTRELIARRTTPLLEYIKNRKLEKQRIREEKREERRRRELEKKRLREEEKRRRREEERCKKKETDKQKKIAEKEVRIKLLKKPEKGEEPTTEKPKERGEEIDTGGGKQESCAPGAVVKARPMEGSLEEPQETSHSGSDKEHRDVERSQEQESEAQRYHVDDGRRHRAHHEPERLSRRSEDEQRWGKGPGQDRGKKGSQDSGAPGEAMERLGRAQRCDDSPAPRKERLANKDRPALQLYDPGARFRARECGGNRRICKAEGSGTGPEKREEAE
UniProt Q9BV40: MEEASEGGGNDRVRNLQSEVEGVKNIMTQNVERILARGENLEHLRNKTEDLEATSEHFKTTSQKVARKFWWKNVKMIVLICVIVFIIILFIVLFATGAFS
UniProt Q8TAA9: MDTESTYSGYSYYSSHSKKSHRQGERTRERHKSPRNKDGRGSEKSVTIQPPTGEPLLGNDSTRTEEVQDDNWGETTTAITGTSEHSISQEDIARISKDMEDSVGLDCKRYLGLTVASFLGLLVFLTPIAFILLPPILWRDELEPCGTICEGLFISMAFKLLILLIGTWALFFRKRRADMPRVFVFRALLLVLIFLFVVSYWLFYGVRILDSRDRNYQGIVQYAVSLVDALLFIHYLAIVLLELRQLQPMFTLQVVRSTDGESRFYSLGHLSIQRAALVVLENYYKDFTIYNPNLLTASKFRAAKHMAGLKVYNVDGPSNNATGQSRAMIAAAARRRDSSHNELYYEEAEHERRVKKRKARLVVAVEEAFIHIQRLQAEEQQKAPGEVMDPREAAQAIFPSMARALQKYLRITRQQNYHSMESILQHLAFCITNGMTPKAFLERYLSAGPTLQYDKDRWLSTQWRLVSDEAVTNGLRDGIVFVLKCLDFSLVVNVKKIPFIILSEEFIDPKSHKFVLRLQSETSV
UniProt Q9H9J4: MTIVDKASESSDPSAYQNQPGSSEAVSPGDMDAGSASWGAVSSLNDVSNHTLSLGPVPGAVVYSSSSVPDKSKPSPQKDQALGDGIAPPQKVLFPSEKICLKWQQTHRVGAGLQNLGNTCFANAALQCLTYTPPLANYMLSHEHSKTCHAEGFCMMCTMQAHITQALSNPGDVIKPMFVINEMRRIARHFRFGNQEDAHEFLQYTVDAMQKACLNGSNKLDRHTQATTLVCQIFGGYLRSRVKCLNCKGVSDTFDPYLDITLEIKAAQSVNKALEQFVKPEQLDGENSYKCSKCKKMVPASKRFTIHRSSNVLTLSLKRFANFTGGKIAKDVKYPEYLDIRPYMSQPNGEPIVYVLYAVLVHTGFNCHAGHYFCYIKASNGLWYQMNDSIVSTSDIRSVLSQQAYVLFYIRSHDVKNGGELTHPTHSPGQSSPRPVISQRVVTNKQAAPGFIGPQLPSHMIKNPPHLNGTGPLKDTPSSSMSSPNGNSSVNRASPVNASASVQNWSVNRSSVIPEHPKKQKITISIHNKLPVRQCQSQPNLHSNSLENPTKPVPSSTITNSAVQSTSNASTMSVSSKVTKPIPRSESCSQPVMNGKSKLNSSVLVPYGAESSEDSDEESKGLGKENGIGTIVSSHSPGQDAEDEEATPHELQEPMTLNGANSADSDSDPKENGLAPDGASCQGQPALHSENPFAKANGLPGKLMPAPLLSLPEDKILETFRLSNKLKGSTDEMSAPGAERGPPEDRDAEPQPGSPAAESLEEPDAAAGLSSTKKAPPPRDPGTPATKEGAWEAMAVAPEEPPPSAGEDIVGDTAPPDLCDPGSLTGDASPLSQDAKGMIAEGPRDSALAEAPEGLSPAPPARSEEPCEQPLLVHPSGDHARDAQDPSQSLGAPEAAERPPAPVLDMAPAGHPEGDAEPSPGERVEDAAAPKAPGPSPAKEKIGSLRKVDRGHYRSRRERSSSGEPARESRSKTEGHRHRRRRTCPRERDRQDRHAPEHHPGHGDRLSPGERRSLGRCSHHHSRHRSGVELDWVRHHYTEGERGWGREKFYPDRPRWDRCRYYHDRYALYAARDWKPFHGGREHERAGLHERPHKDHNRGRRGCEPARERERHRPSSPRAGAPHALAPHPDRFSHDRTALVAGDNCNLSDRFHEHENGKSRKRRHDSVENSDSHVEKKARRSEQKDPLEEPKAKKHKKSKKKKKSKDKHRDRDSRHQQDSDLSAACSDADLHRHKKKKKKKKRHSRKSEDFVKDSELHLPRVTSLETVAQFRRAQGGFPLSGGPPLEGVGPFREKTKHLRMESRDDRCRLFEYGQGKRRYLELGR
UniProt Q8NBZ7: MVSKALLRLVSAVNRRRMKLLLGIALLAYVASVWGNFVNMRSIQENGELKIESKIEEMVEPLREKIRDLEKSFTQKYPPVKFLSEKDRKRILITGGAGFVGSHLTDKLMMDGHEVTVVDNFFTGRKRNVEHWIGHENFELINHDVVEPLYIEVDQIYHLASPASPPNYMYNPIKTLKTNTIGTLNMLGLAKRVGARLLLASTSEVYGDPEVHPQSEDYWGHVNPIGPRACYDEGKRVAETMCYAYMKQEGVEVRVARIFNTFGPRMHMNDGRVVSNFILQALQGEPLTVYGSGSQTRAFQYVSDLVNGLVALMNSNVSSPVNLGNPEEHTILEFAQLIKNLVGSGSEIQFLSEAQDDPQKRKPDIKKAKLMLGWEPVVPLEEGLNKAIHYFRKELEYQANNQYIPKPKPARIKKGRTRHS
UniProt Q9UKW4: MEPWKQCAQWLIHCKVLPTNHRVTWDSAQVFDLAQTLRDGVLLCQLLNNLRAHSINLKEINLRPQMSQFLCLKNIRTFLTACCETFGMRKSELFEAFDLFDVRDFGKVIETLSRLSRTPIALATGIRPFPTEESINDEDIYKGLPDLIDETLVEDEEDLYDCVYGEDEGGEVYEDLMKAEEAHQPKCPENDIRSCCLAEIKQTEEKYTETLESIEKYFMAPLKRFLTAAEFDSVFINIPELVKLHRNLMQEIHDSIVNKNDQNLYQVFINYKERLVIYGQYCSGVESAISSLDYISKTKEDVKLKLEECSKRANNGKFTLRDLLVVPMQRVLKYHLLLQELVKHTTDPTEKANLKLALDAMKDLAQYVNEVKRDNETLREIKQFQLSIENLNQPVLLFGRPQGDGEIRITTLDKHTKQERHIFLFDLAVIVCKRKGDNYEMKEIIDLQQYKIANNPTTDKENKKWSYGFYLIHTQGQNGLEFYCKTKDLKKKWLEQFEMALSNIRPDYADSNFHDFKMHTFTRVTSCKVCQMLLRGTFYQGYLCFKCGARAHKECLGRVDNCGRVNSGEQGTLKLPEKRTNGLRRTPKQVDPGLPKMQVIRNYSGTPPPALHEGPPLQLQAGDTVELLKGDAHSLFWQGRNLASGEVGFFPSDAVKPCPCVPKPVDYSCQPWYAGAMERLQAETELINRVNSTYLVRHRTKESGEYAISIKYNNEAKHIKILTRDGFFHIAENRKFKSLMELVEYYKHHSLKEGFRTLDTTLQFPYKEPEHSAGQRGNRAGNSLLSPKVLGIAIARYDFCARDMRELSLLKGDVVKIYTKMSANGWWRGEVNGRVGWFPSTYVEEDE

Experiments:
Test in all cases: log2 fold change, soluble protein after heating vs DMSO (PISA); higher = thermal stabilisation; K562 lysate, 10 uM; active = over 0.2 and 3.5 SD of the protein, either way, in both replicates (recomputed)
lapatinib = compound: CS(=O)(=O)CCNCc1ccc(-c2ccc3ncnc(Nc4ccc(OCc5cccc(F)c5)c(Cl)c4)c3c2)o1 [lapatinib]
How it was run: (§1)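 Values give the log-two fold change in thermal stability against solvent controls, from duplicates. Crude K562 extract at 1 mg/mL protein, made by dounce homogenisation in PBS pH 7.4 with 1 mM MgCl2, was treated with 10 μM compound for 30 min. After 3 min heating across 48°C-58°C, aliquots were pooled, adjusted to 0.5% NP-40 at 4°C and centrifuged at 21,000xg for 90 min. The supernatant was measured by TMTpro 16plex LC-MS/MS with channel sums equalised.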

pictilisib = compound: CS(=O)(=O)N1CCN(Cc2cc3nc(-c4cccc5[nH]ncc45)nc(N4CCOCC4)c3s2)CC1 [pictilisib]
How it was run: as §1

crizotinib = compound: C[C@@H](Oc1cc(-c2cnn(C3CCNCC3)c2)cnc1N)c1c(Cl)ccc(F)c1Cl [crizotinib]
How it was run: as §1

[1] = compound: C[C@H](C1=CC=C(C=C1)C(=O)NC2=C3C=CNC3=NC=C2)N
How it was run: as §1

duvelisib = compound: C[C@H](Nc1ncnc2nc[nH]c12)c1cc2cccc(Cl)c2c(=O)n1-c1ccccc1 [duvelisib]
How it was run: as §1

gandotinib = compound: Cc1cc(Nc2cc(CN3CCOCC3)c3nc(C)c(Cc4ccc(Cl)cc4F)n3n2)n[nH]1 [gandotinib]
How it was run: as §1

tozasertib = compound: Cc1cc(Nc2cc(N3CCN(C)CC3)nc(Sc3ccc(NC(=O)C4CC4)cc3)n2)n[nH]1 [tozasertib]
How it was run: as §1

doramapimod = compound: Cc1ccc(-n2nc(C(C)(C)C)cc2NC(=O)Nc2ccc(OCCN3CCOCC3)c3ccccc23)cc1 [doramapimod]
How it was run: as §1

bafetinib = compound: Cc1ccc(NC(=O)c2ccc(CN3CC[C@H](N(C)C)C3)c(C(F)(F)F)c2)cc1Nc1nccc(-c2cncnc2)n1 [bafetinib]
How it was run: as §1

[2] = compound: Cc1cccc(CC(=O)N2CCc3c2ccc(-c2cn(C)c4ncnc(N)c24)c3F)n1
How it was run: as §1

dasatinib = compound: Cc1nc(Nc2ncc(C(=O)Nc3c(C)cccc3Cl)s2)cc(N2CCN(CCO)CC2)n1 [dasatinib]
How it was run: as §1

[3] = compound: Cn1cc(-c2ccc3c(c2)CCN3C(=O)Cc2cccc(C(F)(F)F)c2)c2c(N)ncnc21
How it was run: as §1

quisinostat = compound: Cn1cc(CNCC2CCN(c3ncc(C(=O)NO)cn3)CC2)c2ccccc21 [quisinostat]
How it was run: as §1

[4] = compound: NC(=O)Nc1cc(-c2cccc(F)c2)sc1C(=O)N[C@H]1CCCNC1
How it was run: as §1

[5] = compound: NC(=O)c1cnc(N[C@@H]2CCCC[C@@H]2N)nc1Nc1cccc(-n2nccn2)c1
How it was run: as §1

[6] = compound: NC1(c2ccc(-c3nc4ccn5c(=O)[nH]nc5c4cc3-c3ccccc3)cc2)CCC1
How it was run: as §1

nilotinib = compound: Cc1cn(-c2cc(NC(=O)c3ccc(C)c(Nc4nccc(-c5cccnc5)n4)c3)cc(C(F)(F)F)c2)cn1 [nilotinib]
How it was run: as §1

[7] = compound: Cc1nc(Nc2n[nH]c3c2CN(C(=O)N[C@H](CN(C)C)c2ccccc2)C3(C)C)c2sccc2n1
How it was run: as §1

[8] = compound: Cc1ncc(-c2ccnc(Nc3ccc(S(C)(=O)=O)cc3)n2)n1C(C)C
How it was run: as §1

tipifarnib = compound: Cn1cncc1[C@@](N)(c1ccc(Cl)cc1)c1ccc2c(c1)c(-c1cccc(Cl)c1)cc(=O)n2C [tipifarnib]
How it was run: as §1

Measured: log2 fold change

ULBP2 (UniProt Q9BZM5)
inactive: lapatinib -0.067 | pictilisib 0.07 | crizotinib -0.07 | [1] 0.008 | duvelisib 0.005 | gandotinib 0.039 | tozasertib 0.034 | doramapimod 0.002 | bafetinib -0.013 | [2] -0.049 | dasatinib 0.058 | [3] -0.115 | quisinostat 0.006 | [4] -0.004 | [5] -0.018 | [6] -0.055

URB2 (UniProt Q14146)
inactive: lapatinib -0.137 | crizotinib -0.052 | [1] 0.127 | duvelisib 0.028 | gandotinib -0.136 | tozasertib -0.137 | doramapimod -0.077 | [2] -0.086 | nilotinib -0.049 | [7] -0.1 | dasatinib 0.055 | [8] -0.023 | [3] 0.001 | quisinostat -0.024 | tipifarnib 0.12 | [4] 0.079 | [5] 0.037

VIL1 (UniProt P09327)
inactive: lapatinib 0.107 | pictilisib 0.131 | crizotinib -0.02 | [1] 0.079 | duvelisib 0 | gandotinib -0.124 | tozasertib 0.009 | doramapimod 0.058 | bafetinib -0.171 | [2] 0.04 | dasatinib 0.126 | [3] -0.085 | quisinostat 0.046 | [4] 0.044 | [5] -0.013 | [6] 0.012

VEZT (UniProt F8W8C2)
inactive: lapatinib 0.099 | pictilisib -0.162 | crizotinib 0.153 | [1] -0.011 | gandotinib -0.035 | tozasertib -0.052 | doramapimod -0.106 | bafetinib -0.082 | [2] -0.049 | quisinostat 0.091 | [4] 0.034 | [5] -0.12 | [6] 0.065

UPF3A (UniProt Q9H1J1)
inactive: lapatinib -0.017 | pictilisib -0.086 | crizotinib 0.027 | [1] -0.04 | gandotinib 0.054 | tozasertib -0.055 | doramapimod -0.027 | bafetinib 0.029 | [2] 0.204 | quisinostat -0.053 | [4] -0.024 | [5] 0.002 | [6] 0.071

UROD (UniProt H0Y5R6)
inactive: lapatinib -0.105 | pictilisib 0.13 | tozasertib 0.19 | bafetinib -0.407 | [5] 0.126

VAMP8 (UniProt Q9BV40)
inactive: lapatinib -0.001 | pictilisib -0.002 | crizotinib 0.05 | [1] 0.033 | duvelisib 0.105 | gandotinib -0.029 | tozasertib 0.025 | doramapimod -0.011 | bafetinib -0.028 | [2] 0.021 | nilotinib 0.006 | [7] -0.004 | dasatinib 0.051 | [8] 0.017 | [3] 0.015 | quisinostat 0.068 | tipifarnib 0.017 | [4] -0.075 | [5] -0.021 | [6] 0.021

Random excerpt: two records from the list, in no set order.
UPF3A (UniProt Q9H1J1)
inactive: lapatinib -0.017 | pictilisib -0.086 | crizotinib 0.027 | [1] -0.04 | gandotinib 0.054 | tozasertib -0.055 | doramapimod -0.027 | bafetinib 0.029 | [2] 0.204 | quisinostat -0.053 | [4] -0.024 | [5] 0.002 | [6] 0.071

VIL1 (UniProt P09327)
inactive: lapatinib 0.107 | pictilisib 0.131 | crizotinib -0.02 | [1] 0.079 | duvelisib 0 | gandotinib -0.124 | tozasertib 0.009 | doramapimod 0.058 | bafetinib -0.171 | [2] 0.04 | dasatinib 0.126 | [3] -0.085 | quisinostat 0.046 | [4] 0.044 | [5] -0.013 | [6] 0.012

Next results follow:

VANGL1 (UniProt Q8TAA9)
inactive: lapatinib 0.047 | pictilisib -0.071 | crizotinib 0.031 | [1] 0.07 | duvelisib 0.099 | gandotinib 0.004 | tozasertib 0.016 | doramapimod -0.043 | bafetinib 0.016 | [2] 0.084 | nilotinib -0.086 | [7] -0.067 | dasatinib -0.019 | [8] 0.079 | [3] -0.036 | quisinostat 0.014 | tipifarnib 0.042 | [4] 0.009 | [5] 0.121 | [6] 0.034

USP42 (UniProt Q9H9J4)
inactive: lapatinib -0.1 | pictilisib -0.003 | crizotinib 0.018 | tozasertib 0.148 | doramapimod 0.01 | bafetinib 0.105 | nilotinib 0.04 | [7] 0.118 | [8] -0.04 | quisinostat -0.191 | tipifarnib 0 | [4] -0.013 | [5] -0.195

UXS1 isoform 2 (UniProt Q8NBZ7)
inactive: lapatinib -0.083 | pictilisib -0.044 | crizotinib 0.026 | [1] 0.047 | duvelisib 0.023 | gandotinib 0.005 | tozasertib -0.043 | doramapimod -0.006 | bafetinib -0.064 | [2] -0.001 | dasatinib -0.063 | [3] 0.098 | quisinostat 0.045 | [4] -0.009 | [5] -0.041 | [6] -0.039

UNC5B (UniProt Q8IZJ1)
inactive: lapatinib -0.178 | pictilisib -0.079 | crizotinib -0.046 | [1] 0.29 | duvelisib -0.048 | gandotinib -0.094 | tozasertib 0.053 | doramapimod -0.026 | bafetinib -0.019 | [2] -0.062 | nilotinib 0.267 | [7] -0.092 | dasatinib -0.04 | [8] -0.108 | [3] 0.072 | quisinostat -0.056 | tipifarnib -0.097 | [4] -0.004 | [5] 0.097 | [6] -0.012

VAV3 isoform 4 (UniProt Q9UKW4)
inactive: lapatinib -0.167 | pictilisib -0.057 | crizotinib -0.217 | duvelisib -0.008 | gandotinib 0.135 | tozasertib -0.093 | doramapimod 0.325 | bafetinib 0.023 | [2] 0.242 | nilotinib 0.155 | [7] -0.028 | dasatinib -0.061 | [8] -0.055 | [3] 0.08 | quisinostat 0.121 | tipifarnib -0.012 | [4] -0.017 | [5] -0.054 | [6] 0.038
active: [1] -0.655
